{"source": "paper PMC8408249", "tested_on": "MBP-LsAP2 (Lactuca sativa (cultivar S39))", "assay": "EMSA", "conditions": "LightShift Chemiluminescent EMSA Kit per manufacturer's instructions; pH and temperature not stated; recombinant protein; protein details: MBP (N-terminal, pMal-c2X)", "note": "Construct, isoform or probe ends are uncertain for at least one entry.", "data": [{"sequence": "TTTACCTTTTTTTATTTTTATTTTTATTTTTTTCCTTTCTCATCTTTTTTTTCTTCCTTTCTTCTTTCC (double strand) [pLsKAN2-P3d probe]", "values": [{"measurement": "binding result", "value": "binds"}]}]}
